From article PMC7055916
No constants are given. Whether binding was seen depends on the method and setting. In cells and extracts the contact can be indirect.

Molecular target: T. brucei PNUTS with PTP tag, bloodstream form (T. brucei)
Experiment: co-IP; bloodstream form T. brucei whole cell extracts with PTP- and HA-tagged proteins; IgG Sepharose (protein A affinity), washed in PA-150 buffer, western blot with anti-HA, anti-protein A, anti-La

B1: T. brucei La protein (protein, UniProt Q9N9G6 1-335)
chain: MPLSSENKQKLQKQVEFYFSDVNVQRDIFLKGKMAENAEGFVSLETLLTFKRVNSVTTDVKEVVEAIRPSEKLVLSEDGLMVRRRDPLPESIQTDHQTVYVKPVPPTATLEQLTEFFSKHGTVQAVWRRYFAGKKDAPPESRTKPSVFVVFNSSEEAEAFQKAPPMYDDVQLTAEMKTTYLERKAEEIAAKKSSKTKNGGATDRAEKKTPPMPLGSSYRVSGCGEMESFATVKNLWPVEEQKGIRYVFMPDKESALLIFQDTQTGEKMVADLKSRGTTLNGKQPDIKKLEGDDEQKLLENVEKEIVDRAMQSANNRSGRGGRGGRGGRGHKRSRE
binding: no binding
